Here are results for one molecule from PMC2848588.

These are yes or no findings as the source states them, for the method shown. Sequences can lack the tags named with a protein.

This assay has as its target YqeH (Bacillus subtilis), full length, His-tagged (Bacillus subtilis) (UniProt P54453). Put plainly: SEC; analytical gel filtration, Superdex 200 5/150 GL; 7 µM YqeH in 20 mM Tris pH 8, 10 mM MgCl2, 150 mM KCl; nucleotide-free, with 1 mM GDP, with 1 mM GTP, or with 1 mM GDP + 1 mM AlCl3 + 10 mM NaF (GDP·AlFx); incubated at room temperature for 10 min; both purified. (In gel filtration, larger molecules generally elute earlier.)

B1: YqeH (Bacillus subtilis), full length, His-tagged (enzyme, UniProt P54453 1-366)
chain: MEKVVCIGCGVTIQTEDKTGLGYAPPASLTKENVICQRCFRLKNYNEIQDVSLTDDDFLNILHGIGETDSLVVKIVDIFDFNGSWINGLQRLVGGNPILLVGNKADILPKSLKRERLIQWMKREAKELGLKPVDVFLVSAGRGQGIREVIDAIEHYRNGKDVYVVGCTNVGKSTFINRIIKEVSGEEDIITTSQFPGTTLDAIEIPLDDGSSLYDTPGIINNHQMAHYVNKKDLKILSPKKELKPRTFQLNDQQTLYFGGLARFDYVSGERSPFICYMPNELMIHRTKLENADALYEKHAGELLTPPGKDEMDEFPELVAHTFTIKDKKTDIVFSGLGWVTVHDADKKVTAYAPKGVHVFVRRSLI
On to B1, for which the binding entry is recorded as “no binding (tested: 7 µM)”.
